Data published in PubChem BioAssay AID662 (National Center for Advancing Translational Sciences (NCATS), 2007).
The other results are listed elsewhere or left out. These are further read-outs of the screen, such as a control signal, another cell line or another target. No call is given for them. Most of these compounds were active or inconclusive in the main read-out, so they are no random draw. Potencies come from curve fits of mixed quality, noted in brackets.

Assay: Cell signaling CRE-BLA (Fsk stim)
Details: CHO CRE-bla reporter (cAMP response element driving beta-lactamase), forskolin EC10, beta-lactamase ratio; measured here: 460 nm blue channel
How it was run: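 Using CellSensor CRE-bla CHO cells in Opti-MEM with 0.5% dialyzed FBS, compounds were titrated with EC10 NKH 477 for 3 h at 37 °C. CCF4 ratio (460/530 nm) gave %Activity; AC50 derived.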
In the case of CCCCn1ccnc1C(=O)c1cccc(S(=O)(=O)N2c3ccccc3CC2C)c1 (configuration not stated), the AC50 is reported as 5.01 µM [rising, single point]. For Cc1cccc(N(C)C(=O)c2cc3cc4ccc(C)cc4nc3o2)c1, the AC50 was 0.1 µM [rising, full curve]. For Cc1ccc(C)c(Cn2c(=O)c3c(nc4n3CCN4Cc3ccco3)n(C)c2=O)c1, the AC50 was 3.16 µM [rising, partial curve]. With CC(=O)N(Cc1cccnc1)Cc1cc2ccccc2[nH]c1=O the AC50 was 25.1 µM [rising, single point]. For Cc1ccc(S(=O)(=O)N2CCC(C(=O)N[C@@H](Cc3ccccc3)C(=O)O)CC2)cc1, the AC50 was 0.0794 µM [falling, full curve]. With CC(=O)NCCNc1ncnc2ccc(-c3ccccc3C)cc12 the AC50 was 0.398 µM [rising, full curve]. For CCN(CC)S(=O)(=O)c1ccc(NCc2ccccc2)nc1, the AC50 was 2.51 µM [rising, full curve]. For CN(C)c1ccc(C(=C2C=CC(=[N+](C)C)C=C2)c2ccc(N(C)C)cc2)cc1, the AC50 was 3.16 µM [falling, full curve]. With O=C(Cn1cnc2ccccc2c1=O)c1c[nH]c2ccccc12 the AC50 was 25.1 µM [rising, single point]. For COc1cccc(C(=O)Nc2ccc(N(C)C)cc2)c1OC, the AC50 was 5.01 µM [rising, partial curve]. In the case of Clc1ccc(-c2ccc(-c3nn4c(-c5ccco5)nnc4s3)o2)cc1, the AC50 is reported as 10 µM [rising, single point]. In the case of O=C(CSc1nnc2c(Cl)cc(C(F)(F)F)cn12)Nc1ccc2c(c1)OCO2, the AC50 is reported as 0.251 µM [falling, partial curve]. For O=C1c2ccccc2C(=O)N1Cc1nc(-c2ccccc2)no1, the AC50 was 0.794 µM [rising, single point]. With COc1ccc(-c2nc3cnc(N4CCNCC4)nc3n(Cc3ccc(F)cc3)c2=O)cc1 the AC50 was 10 µM [rising, partial curve]. In the case of Cc1ccc2cc(CCNC(=O)CC(C)C)c(=O)[nH]c2c1, the AC50 is reported as 6.31 µM [rising, partial curve]. For Cc1cccc(-n2nc3c(c2NC(=O)c2ccco2)CSC3)c1C, the AC50 was 25.1 µM [falling, single point]. With Cc1ccc(CNC(=O)c2cn(C3CCCC3)c(=O)c3c2c2ccccc2n3C)o1 the AC50 was 0.316 µM [falling, partial curve]. In the case of CCOC(=O)c1c(C)n(C)c2cc(OCCN(CC)CC)ccc12, the AC50 is reported as 12.6 µM [rising, single point]. For CC1(C)Oc2ccc3ccc(=O)oc3c2/C(=C/Nc2ccccn2)C1=O, the AC50 was 12.6 µM [rising, partial curve, poor fit]. In the case of CCN(CC)c1ccc2cc(C(=O)Nc3cccnc3N3CCOCC3)c(=O)oc2c1, the AC50 is reported as 10 µM [rising, partial curve]. In the case of N#Cc1cccc(-c2nc3cnc(N4CCOCC4)nc3n(C3CC3)c2=O)c1, the AC50 is reported as 1.58 µM [rising, full curve]. In the case of Fc1ccc(-c2nnc3ccc(N4CCc5ccccc5C4)nn23)cc1, the AC50 is reported as 12.6 µM [rising, partial curve]. For Cc1nc(SC2CC(=O)N(c3ccccc3)C2=O)nc2c1CCCC2 (configuration not stated), the AC50 was 12.6 µM [rising, single point]. For c1ccc(Nc2ncnc3ccc(-c4cccnc4)cc23)cc1, the AC50 was 10 µM [rising, partial curve]. With O=C(c1ccc(NS(=O)(=O)c2cccc3cccnc23)cc1)N1CCOCC1 the AC50 was 10 µM [rising, single point]. In the case of Cc1cc2cc(CCNC(=O)CC(C)C)c(=O)[nH]c2cc1C, the AC50 is reported as 12.6 µM [rising, partial curve]. With Cn1c(=O)c2c(nc(SCc3ccccn3)n2C)n(C)c1=O the AC50 was 5.01 µM [falling, single point]. For CCC(C)n1cnc2c(c1=O)c1nc3ccccc3nc1n2-c1ccc2c(c1)OCCO2 (configuration not stated), the AC50 was 7.94 µM [rising, partial curve]. In the case of Cc1cc(NC(=O)c2ccc(S(=O)(=O)N3CCOCC3)cc2)nc2c1c(=O)oc1ccccc12, the AC50 is reported as 10 µM [rising, partial curve]. With CC1=CCC(C(C)(C)NC(=O)c2ccccc2)C/C1=N\O (configuration not stated) the AC50 was 0.316 µM [rising, partial curve]. In the case of O=C(CSc1nnc(-c2ccco2)n1Cc1ccccc1)OC1CCCCC1, the AC50 is reported as 20 µM [rising, single point]. In the case of Cc1cccc(-c2cc3nc4c(c(N5CCC6(CC5)OCCO6)n3n2)CCCC4)c1, the AC50 is reported as 1.26 µM [rising, full curve, poor fit]. In the case of COCCN(CCOC)c1nc(C)nc2c1nc(-c1ccccc1)n2CCN1CCOCC1, the AC50 is reported as 10 µM [rising, partial curve]. In the case of O=C1C2C3C=CC(CO)(O3)C2C(=O)N1c1ccc(-c2ccccc2)cc1 (configuration not stated), the AC50 is reported as 25.1 µM [falling, single point]. For Cc1cc(C)n2nc(SCC(=O)NCc3ccco3)nc2n1, the AC50 was 0.00316 µM [rising, full curve, poor fit]. For O=C(NCC12CC3CC(CC(C3)C1)C2)c1cc2n(n1)C(C(F)(F)F)CC(c1ccco1)N2 (configuration not stated), the AC50 was 12.6 µM [rising, single point]. With Cn1nc(-c2ccc(Cl)cc2)c2cc(C(=O)NCCCN3CCCC3)sc21 the AC50 was 12.6 µM [rising, partial curve]. In the case of CCn1c2ccccc2c2cc(NC(=O)CSc3nnc(-c4ccccc4OC)n3N)ccc21, the AC50 is reported as 3.98 µM [falling, partial curve]. In the case of CC1(C)CC(=O)C=C(Nc2ccccn2)C1, the AC50 is reported as 25.1 µM [falling, single point]. In the case of COc1ccc(OC)c(C(=O)c2coc3ccc(O)c(CN4CCOCC4)c23)c1, the AC50 is reported as 3.16 µM [rising, single point]. In the case of COc1ccc(-c2nnc(SCC#CCO)o2)cc1OC, the AC50 is reported as 1 µM [rising, full curve]. In the case of Cc1ccc(NCN2C(=O)C3C4C=CC(C4)C3C2=O)cc1 (configuration not stated), the AC50 is reported as 0.631 µM [falling, full curve, poor fit]. With O=C(NCCc1ccccc1)C1CCN(S(=O)(=O)N2CCC3(CC2)OCCO3)CC1 the AC50 was 0.1 µM [falling, full curve, poor fit]. For c1cnc(N2CCN(c3nc4ccccc4n4cnnc34)CC2)nc1, the AC50 was 2 µM [rising, full curve]. With Cc1ccc(NC(=O)CN(C)S(=O)(=O)c2cccc3nsnc23)cc1 the AC50 was 0.398 µM [falling, partial curve]. With N#Cc1c(N)c(C(=O)c2ccccc2)n2c1CCCC2 the AC50 was 0.501 µM [falling, single point]. With CSc1nc2sc3c(c2c(=O)n1C)CCCC3 the AC50 was 10 µM [rising, partial curve]. In the case of CCOC(=O)c1ccc(N2C(=O)c3n[nH]c(C)c3C2c2ccc(OC)c(OC)c2)cc1 (configuration not stated), the AC50 is reported as 12.6 µM [rising, single point]. For NC(=O)NC(c1ccccc1)c1ccccc1F (configuration not stated), the AC50 was 0.02 µM [rising, single point]. With CCOc1cc2c(cc1OCC)C(C(=O)O)C(c1ccc(OC)c(O)c1)N(C)C2=O (configuration not stated) the AC50 was 3.16 µM [falling, full curve, poor fit]. For O=C(O)c1cccc(S(=O)(=O)Nc2ccccc2Cl)c1, the AC50 was 0.0501 µM [falling, full curve, poor fit]. In the case of FC(F)(F)c1nnc2ccc(N3CCOCC3)nn12, the AC50 is reported as 10 µM [falling, partial curve]. With CN1CCN(CC(=O)N(Cc2c(C#N)c3ccccc3n2C)c2ccccc2)CC1 the AC50 was 25.1 µM [rising, single point]. With Cc1cccc(OCCCC(=O)Nc2ccc3c(c2)OCO3)c1 the AC50 was 0.00398 µM [falling, full curve]. In the case of CCOC(=O)C1CN(S(=O)(=O)c2ccc(C)cc2)CCN1S(=O)(=O)c1ccc(C)cc1 (configuration not stated), the AC50 is reported as 0.631 µM [rising, full curve, poor fit]. With COc1ccc(OC)c2[nH]c(=O)c(CCNS(=O)(=O)c3ccccc3)cc12 the AC50 was 1 µM [rising, partial curve]. For COC(=O)c1ccc(CSc2nc3ccccc3o2)cc1, the AC50 was 0.00398 µM [falling, full curve, poor fit]. In the case of Cc1cc(-n2c(C)cc(C(=O)CSc3ccc4c(c3)OCCO4)c2C)no1, the AC50 is reported as 25.1 µM [falling, single point]. In the case of Cc1oc(-c2cccc(Cl)c2)nc1CN1CCC(C(=O)NCc2ccco2)CC1, the AC50 is reported as 5.01 µM [falling, partial curve]. With O=c1[nH]c2c(s1)C(c1ccccc1)C1C3CCC(C3)C1S2 (configuration not stated) the AC50 was 10 µM [rising, partial curve]. In the case of Cc1noc(C)c1CSc1nnc(-c2ccccc2F)n1CCc1ccccc1, the AC50 is reported as 5.01 µM [falling, single point]. For CSc1nc(-c2ccccc2O)nc(-c2ccccc2O)n1, the AC50 was 15.8 µM [rising, single point]. In the case of CCOC(=O)N1CCC(n2c(SCC(=O)Nc3nccs3)nc3ccsc3c2=O)CC1, the AC50 is reported as 0.00398 µM [falling, full curve, poor fit]. For C[C@@H]1C[C@@H]2[C@H]3CCC4=CC(=O)C=C[C@]4(C)[C@]3(F)[C@@H](O)C[C@@]2(C)[C@@]1(O)C(=O)CO, the AC50 was 31.6 µM [falling, single point]. With CCn1c(SCC(=O)Nc2cc(C)ccc2C)nnc1-c1cnccn1 the AC50 was 2 µM [rising, full curve]. In the case of CCOc1ccc(OCC)c(NC(=O)CSc2nc3c(c(=O)n(C)c(=O)n3C)n2CC)c1, the AC50 is reported as 1.58 µM [rising, full curve]. In the case of Cc1ccc(OC(=O)c2ccc(C)c(C)c2)cn1, the AC50 is reported as 0.00794 µM [falling, full curve, poor fit].
